PubChem BioAssay AID1259424, University of Nebraska Medical Center – 2018

Test: 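Seek colon cancer survival genes behaving like KSR1, using a six-gene signature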 (primary screen)
System: human HCT116 colon cancer cells
Reagent: siRNA pool against human genes, 50 nM
Read-out: 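Log2 levels of six mRNAs (branched-DNA multiplex), adjusted by two reference genes and the non-targeting median, then scored against the average KSR1 knockdown pattern as Pearson r and euclidean distance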
Scale: mean correlation with KSR1 profile and KSR1 correlation: higher = expression change more like KSR1 knockdown; mean distance from KSR1 profile: higher = expression change less like KSR1 knockdown
In all, the deposit lists about 14,000 reagents; shown is a part drawn at random. 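Higher correlation or smaller distance means closer resemblance to KSR1 loss; control wells, including KSR1 knockdowns, recur on many plates.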 The numbers tell different reagents against one gene apart. Further read-outs or replicates are left out here. No sequences are given here. Not stated in the record: the time to read-out.

no.	Gene	reagent	mean correlation with KSR1 profile	mean distance from KSR1 profile	KSR1 correlation, replicate 1
1	PPP4C	1	0.0111	2.8	0.282
2	ACSL3	1	-0.31	2.12	-0.163
3	PDE8A	1	-0.702	2.84	-0.776
4	NAA11	1	0.34	1.51	0.178
5	ZFHX2	1	0.28	3.42	0.111
6	ZFHX2	2	-0.531	3.81	-0.565
7	OPRD1	1	0.342	2.77	0.409

The list goes on (2 carried over from the part before).
no.	Gene	reagent	mean correlation with KSR1 profile	mean distance from KSR1 profile	KSR1 correlation, replicate 1
6	ZFHX2	2	-0.531	3.81	-0.565
7	OPRD1	1	0.342	2.77	0.409
8	NME5	1	0.561	1.57	0.676
9	FBXW4P1	1	0.304	2.16	0.213
10	PDCD1LG2	1	0.0909	1.71	-0.193
11	LMTK3	1	-0.321	2.67	-0.0487
12	RASIP1	1	-0.323	5.12	-0.0745
13	CFHR2	1	-0.155	2.45	-0.32
14	XPNPEP1	1	-0.0181	1.45	0.0537
15	ZNF407	1	-0.407	6.55	-0.0814
16	FBXO9	1	-0.447	3.2	-0.556
17	SETDB2	1	0.384	2.12	0.197
18	ADGRL3	1	0.829	0.904	0.823
19	USHBP1	1	0.718	1.73	0.54
20	FANCI	1	0.0432	3.21	-0.0405
